Test results published in publication PMC4996131.
These are yes or no findings as the source states them, for the method shown. In cells and extracts the contact can be indirect. Some results given as binding are weak or reduced against the parent protein; the word gives no strength.

Chains of the proteins cited; added tags and fusions are not shown.
UniProt P46940: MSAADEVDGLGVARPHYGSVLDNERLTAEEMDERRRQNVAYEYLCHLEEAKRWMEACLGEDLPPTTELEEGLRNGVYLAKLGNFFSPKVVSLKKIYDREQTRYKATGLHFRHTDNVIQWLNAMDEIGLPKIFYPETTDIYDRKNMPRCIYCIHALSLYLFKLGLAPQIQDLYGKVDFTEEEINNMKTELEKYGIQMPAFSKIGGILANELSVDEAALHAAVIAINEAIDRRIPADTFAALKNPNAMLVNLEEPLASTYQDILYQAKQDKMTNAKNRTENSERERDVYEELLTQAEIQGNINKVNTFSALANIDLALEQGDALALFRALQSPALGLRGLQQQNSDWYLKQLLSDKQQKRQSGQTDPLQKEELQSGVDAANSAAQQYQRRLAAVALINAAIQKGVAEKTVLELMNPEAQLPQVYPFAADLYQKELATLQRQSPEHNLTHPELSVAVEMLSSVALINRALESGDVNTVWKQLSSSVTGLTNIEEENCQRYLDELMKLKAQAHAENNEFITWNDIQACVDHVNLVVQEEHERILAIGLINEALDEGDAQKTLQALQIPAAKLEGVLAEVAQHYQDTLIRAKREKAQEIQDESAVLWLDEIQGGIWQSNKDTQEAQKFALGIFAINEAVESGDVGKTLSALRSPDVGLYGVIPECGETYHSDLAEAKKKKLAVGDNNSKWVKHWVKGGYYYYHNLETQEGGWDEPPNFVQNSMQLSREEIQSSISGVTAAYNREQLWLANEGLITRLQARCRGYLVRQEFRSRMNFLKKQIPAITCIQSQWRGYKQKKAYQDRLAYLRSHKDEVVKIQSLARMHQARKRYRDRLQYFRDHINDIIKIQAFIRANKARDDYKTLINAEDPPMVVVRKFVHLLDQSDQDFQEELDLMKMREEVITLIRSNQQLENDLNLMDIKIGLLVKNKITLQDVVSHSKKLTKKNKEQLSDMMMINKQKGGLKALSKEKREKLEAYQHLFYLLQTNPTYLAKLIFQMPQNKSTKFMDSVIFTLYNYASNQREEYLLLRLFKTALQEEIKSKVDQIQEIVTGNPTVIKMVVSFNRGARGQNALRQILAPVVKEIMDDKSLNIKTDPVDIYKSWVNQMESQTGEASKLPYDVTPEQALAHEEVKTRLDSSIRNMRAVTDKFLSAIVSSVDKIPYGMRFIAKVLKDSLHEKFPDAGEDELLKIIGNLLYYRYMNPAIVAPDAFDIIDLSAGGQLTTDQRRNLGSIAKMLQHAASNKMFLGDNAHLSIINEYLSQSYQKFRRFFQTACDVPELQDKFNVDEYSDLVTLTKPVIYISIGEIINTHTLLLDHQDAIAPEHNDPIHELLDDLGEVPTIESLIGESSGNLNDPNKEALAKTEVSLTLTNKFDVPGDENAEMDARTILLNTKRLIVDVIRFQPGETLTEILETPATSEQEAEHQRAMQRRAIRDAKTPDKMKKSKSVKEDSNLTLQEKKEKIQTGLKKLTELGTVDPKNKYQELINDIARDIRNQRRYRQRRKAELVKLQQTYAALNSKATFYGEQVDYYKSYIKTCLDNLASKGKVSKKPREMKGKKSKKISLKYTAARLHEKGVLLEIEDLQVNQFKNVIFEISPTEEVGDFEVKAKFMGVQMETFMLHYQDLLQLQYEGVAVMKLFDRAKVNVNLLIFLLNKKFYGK
UniProt P35222: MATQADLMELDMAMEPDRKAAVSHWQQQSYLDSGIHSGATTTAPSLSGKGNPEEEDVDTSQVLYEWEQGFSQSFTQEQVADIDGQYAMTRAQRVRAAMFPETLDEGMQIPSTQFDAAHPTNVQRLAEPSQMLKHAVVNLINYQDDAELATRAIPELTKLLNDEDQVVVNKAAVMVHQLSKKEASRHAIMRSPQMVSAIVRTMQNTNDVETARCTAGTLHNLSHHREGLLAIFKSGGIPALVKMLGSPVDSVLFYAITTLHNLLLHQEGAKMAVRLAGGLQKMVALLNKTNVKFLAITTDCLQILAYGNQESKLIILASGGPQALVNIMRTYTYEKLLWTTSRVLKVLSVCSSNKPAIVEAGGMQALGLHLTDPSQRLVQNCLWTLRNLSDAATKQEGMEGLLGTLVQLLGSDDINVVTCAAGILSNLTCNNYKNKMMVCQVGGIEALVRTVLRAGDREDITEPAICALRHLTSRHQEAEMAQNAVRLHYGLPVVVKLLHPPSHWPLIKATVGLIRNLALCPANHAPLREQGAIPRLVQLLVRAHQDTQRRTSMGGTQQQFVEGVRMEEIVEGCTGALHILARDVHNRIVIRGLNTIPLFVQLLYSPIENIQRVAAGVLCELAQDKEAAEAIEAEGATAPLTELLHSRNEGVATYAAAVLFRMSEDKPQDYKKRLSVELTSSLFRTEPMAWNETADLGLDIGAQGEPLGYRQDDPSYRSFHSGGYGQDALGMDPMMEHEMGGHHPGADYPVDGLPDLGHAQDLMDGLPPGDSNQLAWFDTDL

Molecular target: IQGAP1 (human (endogenous in primary RPE cells)) (UniProt P46940)
Test: co-IP; endogenous proteins in RIPA lysates of human primary RPE cells (500 µg protein); antibody to β-catenin, IQGAP1 or pan-cadherin with Dynabeads protein G, 4 °C overnight, three washes in RIPA; blot for the partner; cells treated with PBS, H2O2 (10 µmol/l) or TNFα (20 ng/ml) for 5 h or overnight, IQGAP1 or control siRNA, Ad-GFP or Ad-63E (active Rap1a)

binding: binds
Substance: β-catenin (from UniProt P35222 1-781)
